Experimental data reported in the supplement of paper PMC5949888.
Most values lie at the floor of the assay. Slopes are relative: functional sequences can read slightly below zero.

Test system: Saccharomyces cerevisiae PS128 hsf1 delta, HSF1(1-493) fusion
Experiment: growth estimate (transactivation domain function in HSF1 fusion, heat-shock survival) (a.u. (slope of normalised read count over time)); higher = stronger growth at 37°C, i.e. more transactivation activity
Conditions: library: random library
Procedure: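 Random 60-nt DNA library encoding peptides of up to 20 aa, fused to the C-terminus of yeast HSF1 residues 1-493 (C-terminal TAD deleted) and expressed from the native HSF1 promoter on a CEN plasmid in hsf1-deleted S. cerevisiae PS128. Cells were selected at 37°C on -trp 5-FOA plates for 0, 2, 4, 6 and 8 days and amplicons were sequenced. Growth estimate is the slope of a robust linear fit of total-sum-normalised read counts (normalised to the first time point) over time, using at least 2 replicates. Sequences are classed functional (TAD activity) above a threshold of -0.13, set from stop-codon control sequences.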

| Substance | growth estimate |
| --- | --- |
| FLAHQRT | < -0.25 |
| FLALQGGGITECVIQVSCKR | < -0.25 |
| FLCRLTVPVYKALPSGLLPG | < -0.25 |
| FLDTSARIVSLSSLLSASLR | < -0.25 |
| FLFSMVEA | -0.189 |
| FLG | < -0.25 |
| FLHSTSEP | < -0.25 |
| FLHYADIPPGNGSDHQPDRW | < -0.25 |
| FLKILRQYCAHT | < -0.25 |
| FLLLCPSLR | < -0.25 |
| FLLSPTTGDVPLGRNDSLAY | -0.125 |
| FLLWLTARSCNCLSKSRVND | < -0.25 |
| FLNFLRLRINSLQLASATFR | < -0.25 |
| FLPAHGPGWGMLMLQGYRPH | < -0.25 |
| FLPARSQNGSYTASKIWGRR | < -0.25 |
| FLPPYLDGAFLPSLSGLLIC | < -0.25 |
| FLQGKGVGPRPVSSLCFAIT | < -0.25 |
| FLQIVKRERHDGKMNFSRID | < -0.25 |
| FLQSGTL | < -0.25 |
| FLRMKASRLWPVHRMTSTVT | < -0.25 |
| FLS | < -0.25 |
| FLVDRTSTHYVMLETRTRAT | < -0.25 |
| FLVVQTGGVTHTTDSHQ | < -0.25 |
| FLWLQRKRPGTILRPRLGLR | < -0.25 |

| Substance | growth estimate |
| --- | --- |
| FLYIGCFLRRTYKYAAEPEF | < -0.25 |
| FLYWA | -0.25 |
| FMEL | < -0.25 |
| FMERHMAGVIGSTVCSLSRD | < -0.25 |
| FMLSV | < -0.25 |
| FMSPDVMENRRELRQGPERS | < -0.25 |
| FMSV | < -0.25 |
| FMTVGVAAAFGERRRLDSEG | < -0.25 |
| FMTVRPDQSV | < -0.25 |
| FMVLRGRLGESLRCWQIV | < -0.25 |
| FMVSARPMTGFSSPPGRDGT | -0.245 |
| FNNDFPIQMHGRPKVFF | < -0.25 |
| FNPGPDPWRLSD | -0.245 |
| FNTEFSGKNKWA | < -0.25 |
| FNTLWSLRG | < -0.25 |
| FNTSGPLSSLWSL | -0.236 |
| FNVASGNAI | < -0.25 |
| FPAGPVRARSQAVLNLGPYV | < -0.25 |
| FPFGRLTGFH | < -0.25 |
| FPGPLGWFFEVSGNYLESCS | < -0.25 |
| FPGRVLRIIRA | < -0.25 |
| FPIHTVLTVYRTLTGGGSIN | < -0.25 |
| FPPRDGLRKRLYQALSGFGR | < -0.25 |
| FPPRVSSGRIA | < -0.25 |

Some values from the entries so far:
growth estimate, FMSPDVMENRRELRQGPERS is entered as < -0.25
growth estimate, FMERHMAGVIGSTVCSLSRD is entered as < -0.25
growth estimate, FMLSV is entered as < -0.25
growth estimate, FNTLWSLRG is entered as < -0.25

Later entries

| Substance | growth estimate |
| --- | --- |
| FPQ | < -0.25 |
| FPQAAPQSHRG | < -0.25 |
| FPQGAKACKRWSWSLTAT | < -0.25 |
| FPQK | < -0.25 |
| FPRDLVLYLTGLWDRTTETP | < -0.25 |
| FPRGRPCTRYFERFDGWTGG | < -0.25 |
| FPRMSGKTLWWLSCLPSSGD | < -0.25 |
| FPRTTLSGRLPYRFNECSLR | < -0.25 |
| FPRWLGGVVYHAAV | < -0.25 |
| FPSEEKGV | -0.246 |
| FPSFVRDMKRSGCSIPQSAA | -0.231 |
| FPSPKL | < -0.25 |
| FPTILVCPASCRTNLPHCVV | < -0.25 |
| FPWDICDYSRYQDLDAPVRL | < -0.25 |
| FPYLAVVGYNNLARNQLPLR | < -0.25 |
| FQAGP | < -0.25 |
| FQCASNVSFKPGSLHGGLNS | < -0.25 |
| FQEPSRSIGFD | < -0.25 |
| FQMTEIADSDKAE | -0.245 |
| FQSIPTAL | < -0.25 |
| FQSRGCGVRALQPVCGLIGG | < -0.25 |
| FQTGYSKYHDLSSPTFWCTG | < -0.25 |
| FRAGGQGRC | < -0.25 |
| FRAKPPSGPAYRTLLIVGVW | < -0.25 |

| Substance | growth estimate |
| --- | --- |
| FRASYRL | < -0.25 |
| FRATLLVSSSSFIISGHRSS | < -0.25 |
| FRAVSDRWMDRSLQHYG | < -0.25 |
| FRCRHTIPHASGGLCVYYLC | < -0.25 |
| FRCRYTAYSTRRHRSARWNG | < -0.25 |
| FRFRP | < -0.25 |
| FRGLRAQVYYTTACYRELTR | < -0.25 |
| FRGTKN | < -0.25 |
| FRHGLP | < -0.25 |
| FRIFLV | < -0.25 |
| FRITVRK | < -0.25 |
| FRKRSISR | < -0.25 |
| FRLARTGSIRSESNAVVSLG | < -0.25 |
| FRLEVRSLGVSVTANASHLI | < -0.25 |
| FRLFLSGLTRDKYRNVRISR | < -0.25 |
| FRP | < -0.25 |
| FRPCGHVNRVQPLPRND | < -0.25 |
| FRPGKFKVAVLCG | < -0.25 |
| FRPGLARTISARTARLRFSI | < -0.25 |
| FRRECCFCVMIEILVLGRAP | < -0.25 |
| FRRMDYMLNGKLRQDVACEQ | < -0.25 |
| FRRRPYETEGGKAGNGTQGL | < -0.25 |
| FRRSRQCARYNLFQNNRRCP | 0.436 |
